Results from article PMC7482433.
Like-named read-outs stand apart in the source and are kept apart here. No constants are given. Whether binding was seen depends on the method and setting. Binding seen in cells or lysates may run through a third protein. These calls come from enrichment with a bait or labelling near it, and not all partners need be listed. For some of these results: A no says only that the protein was not detected with the bait. For some of these results: Where a sequence is shown, tags or fusion partners need not be part of it.

Amino acid sequences for entries named in this document (tags omitted).
UniProt Q4ZIN3: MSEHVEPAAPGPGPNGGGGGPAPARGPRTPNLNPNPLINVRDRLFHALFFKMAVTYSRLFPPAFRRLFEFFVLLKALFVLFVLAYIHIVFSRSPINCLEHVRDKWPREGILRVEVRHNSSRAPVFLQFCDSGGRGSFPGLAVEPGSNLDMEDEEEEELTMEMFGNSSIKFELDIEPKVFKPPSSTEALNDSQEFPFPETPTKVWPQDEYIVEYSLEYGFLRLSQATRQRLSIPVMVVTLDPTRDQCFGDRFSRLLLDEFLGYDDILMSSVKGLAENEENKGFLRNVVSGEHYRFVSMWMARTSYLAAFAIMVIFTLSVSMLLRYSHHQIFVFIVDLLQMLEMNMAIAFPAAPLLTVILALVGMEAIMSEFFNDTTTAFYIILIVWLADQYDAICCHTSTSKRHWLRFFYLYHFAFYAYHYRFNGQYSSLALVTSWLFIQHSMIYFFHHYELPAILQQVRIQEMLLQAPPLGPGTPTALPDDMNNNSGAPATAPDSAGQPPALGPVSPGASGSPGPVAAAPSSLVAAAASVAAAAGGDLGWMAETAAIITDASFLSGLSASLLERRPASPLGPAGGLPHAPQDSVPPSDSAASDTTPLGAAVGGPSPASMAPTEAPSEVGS
UniProt Q86TM6: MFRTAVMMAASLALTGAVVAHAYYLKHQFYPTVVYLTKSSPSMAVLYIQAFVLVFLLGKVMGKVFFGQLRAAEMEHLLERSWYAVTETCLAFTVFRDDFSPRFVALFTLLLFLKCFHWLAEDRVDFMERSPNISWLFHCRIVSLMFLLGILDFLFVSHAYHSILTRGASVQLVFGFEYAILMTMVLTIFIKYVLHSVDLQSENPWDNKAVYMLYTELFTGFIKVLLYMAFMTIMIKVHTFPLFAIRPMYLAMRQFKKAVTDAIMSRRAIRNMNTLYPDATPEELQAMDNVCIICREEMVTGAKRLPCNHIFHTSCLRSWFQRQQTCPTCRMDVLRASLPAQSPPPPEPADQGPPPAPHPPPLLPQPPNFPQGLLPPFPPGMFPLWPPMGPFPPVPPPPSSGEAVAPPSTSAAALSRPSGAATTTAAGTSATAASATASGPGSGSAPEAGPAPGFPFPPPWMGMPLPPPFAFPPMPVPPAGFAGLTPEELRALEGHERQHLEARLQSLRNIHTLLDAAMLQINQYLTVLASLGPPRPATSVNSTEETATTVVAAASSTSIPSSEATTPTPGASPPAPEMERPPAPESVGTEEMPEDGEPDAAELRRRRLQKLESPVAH
UniProt Q71RG4: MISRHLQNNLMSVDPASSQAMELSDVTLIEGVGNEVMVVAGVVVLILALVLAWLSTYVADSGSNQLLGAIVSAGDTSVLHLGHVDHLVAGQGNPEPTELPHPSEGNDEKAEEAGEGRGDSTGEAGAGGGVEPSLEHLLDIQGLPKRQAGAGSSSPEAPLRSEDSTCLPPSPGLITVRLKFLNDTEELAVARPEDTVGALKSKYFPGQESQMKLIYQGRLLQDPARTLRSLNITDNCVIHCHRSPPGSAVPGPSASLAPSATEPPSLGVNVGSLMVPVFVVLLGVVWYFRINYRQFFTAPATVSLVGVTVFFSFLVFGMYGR

B1: endogenous CYP51A1 (protein, UniProt Q16850 1-509)
chain: MAAAAGMLLLGLLQAGGSVLGQAMEKVTGGNLLSMLLIACAFTLSLVYLIRLAAGHLVQLPAGVKSPPYIFSPIPFLGHAIAFGKSPIEFLENAYEKYGPVFSFTMVGKTFTYLLGSDAAALLFNSKNEDLNAEDVYSRLTTPVFGKGVAYDVPNPVFLEQKKMLKSGLNIAHFKQHVSIIEKETKEYFESWGESGEKNVFEALSELIILTASHCLHGKEIRSQLNEKVAQLYADLDGGFSHAAWLLPGWLPLPSFRRRDRAHREIKDIFYKAIQKRRQSQEKIDDILQTLLDATYKDGRPLTDDEVAGMLIGLLLAGQHTSSTTSAWMGFFLARDKTLQKKCYLEQKTVCGENLPPLTYDQLKDLNLLDRCIKETLRLRPPIMIMMRMARTPQTVAGYTIPPGHQVCVSPTVNQRLKDSWVERLDFNPDRYLQDNPASGEKFAYVPFGAGRHRCIGENFAYVQIKTIWSTMLRLYEFDLIDGYFPTVNYTTMIHTPENPVIRYKRRSK
B2: endogenous RNF185 (protein, UniProt Q96GF1 1-192)
chain: MASKGPSASASPENSSAGGPSGSSNGAGESGGQDSTFECNICLDTAKDAVISLCGHLFCWPCLHQWLETRPNRQVCPVCKAGISRDKVIPLYGRGSTGQQDPREKTPPRPQGQRPEPENRGGFQGFGFGDGGFQMSFGIGAFPFGIFATAFNINDGRPPPAVPGTPQYVDEQFLSRLFLFVALVIMFWLLIA
B3: Erlin1 (protein, UniProt O75477 1-348)
chain: MNMTQARVLVAAVVGLVAVLLYASIHKIEEGHLAVYYRGGALLTSPSGPGYHIMLPFITTFRSVQTTLQTDEVKNVPCGTSGGVMIYIDRIEVVNMLAPYAVFDIVRNYTADYDKTLIFNKIHHELNQFCSAHTLQEVYIELFDQIDENLKQALQKDLNLMAPGLTIQAVRVTKPKIPEAIRRNFELMEAEKTKLLIAAQKQKVVEKEAETERKKAVIEAEKIAQVAKIRFQQKVMEKETEKRISEIEDAAFLAREKAKADAEYYAAHKYATSNKHKLTPEYLELKKYQAIASNSKIYFGSNIPNMFVDSSCALKYSDIRTGRESSLPSKEALEPSGENVIQNKESTG
B4: Erlin2 (protein, UniProt O94905 1-339)
chain: MAQLGAVVAVASSFFCASLFSAVHKIEEGHIGVYYRGGALLTSTSGPGFHLMLPFITSYKSVQTTLQTDEVKNVPCGTSGGVMIYFDRIEVVNFLVPNAVYDIVKNYTADYDKALIFNKIHHELNQFCSVHTLQEVYIELFDQIDENLKLALQQDLTSMAPGLVIQAVRVTKPNIPEAIRRNYELMESEKTKLLIAAQKQKVVEKEAETERKKALIEAEKVAQVAEITYGQKVMEKETEKKISEIEDAAFLAREKAKADAECYTAMKIAEANKLKLTPEYLQLMKYKAIASNSKIYFGKDIPNMFMDSAGSVSKQFEGLADKLSFGLEDEPLETATKEN

Assays:
3xFLAG-RNF185 (human) [1] = biological target: T1, 3xFLAG-RNF185 (human) (UniProt Q96GF1); test: affinity purification with mass spectrometry; FLAG-M2 magnetic beads on FLAG-tagged baits from detergent extracts (1% DMNG, 50 mM Tris-HCl pH 7.5, 150 mM NaCl), 3xFLAG peptide elution; cells untreated or treated with the p97 inhibitor CB-5083; enrichment over an untagged control
T1 sequence: B2 chain

[2] = biological target: endogenously tagged Membralin-mNeonGreen (human (endogenous in HeLa)) (UniProt Q4ZIN3); test: affinity purification with mass spectrometry; mNeonGreen-Trap magnetic beads on endogenously tagged MBRL-mNG from HeLa lysate (1% DMNG); against an untagged control cell line
3xFLAG-RNF185 (human) [3] = biological target: T1, 3xFLAG-RNF185 (human); test: affinity purification with mass spectrometry; FLAG-M2 magnetic beads on FLAG-tagged baits from detergent extracts (1% DMNG, 50 mM Tris-HCl pH 7.5, 150 mM NaCl), 3xFLAG peptide elution; cells untreated or treated with the p97 inhibitor CB-5083; enrichment over an untagged control; remark: listed apart in the source
MBRL-3xFLAG (human) = MBRL-3xFLAG (human) (UniProt Q4ZIN3); test: as above
FLAG-tagged HRD1 (human) = FLAG-tagged HRD1 (human) (UniProt Q86TM6); test: as above
[4] = biological target: endogenously tagged Membralin-mNeonGreen (human (endogenous in HeLa)) (UniProt Q4ZIN3); test: affinity purification with mass spectrometry; mNeonGreen-Trap magnetic beads on endogenously tagged MBRL-mNG from HeLa lysate (1% DMNG); against an untagged control cell line; remark: listed apart in the source

| Molecule | binding (3xFLAG-RNF185 (human) [3]) | binding (MBRL-3xFLAG (human)) | binding [4] | also measured |
| --- | --- | --- | --- | --- |
| p97 (from UniProt P55072 1-806) |  |  |  | binding (3xFLAG-RNF185 (human) [1]): binds |
| TMUB2 (from UniProt Q71RG4 1-321) |  |  |  | binding [2]: binds |
| endogenous Membralin (from UniProt Q4ZIN3 1-620) |  |  |  | binding (3xFLAG-RNF185 (human) [1]): binds |
| B1 | binds | binds |  | binding (FLAG-tagged HRD1 (human)): no binding |
| B2 |  |  | binds |  |
| B3 | binds | binds | binds |  |
| B4 | binds | binds | binds |  |
